From patent US9920106 (dated 2018)

Legend:
[1] = general procedure: Fmoc solid-phase peptide synthesis; HypoGel 200 RAM; HBTU; HATU for Aib residues and residues following Aib; details: whole synthesis, scale 1 mmol
[2] = general procedure: Fmoc solid-phase peptide synthesis; Rink amide resin (0.57 mmol/g); 2-chlorotrityl resin; HypoGel 200 RAM; HBTU; HATU for Aib residues and residues following Aib; details: whole synthesis

N^α-(3-(3H-imidazol-4-yl)-propionyl [Aib^22,35,Arg^26,34]GLP-1-(8-37))yl(N^ϵ-(3-(mPEGyl)propionyl)Lysinamide) wherein mPEGyl is polydisperse and has a molecular weight of approximately 2000 Da
isolated mass [1]: 210 mg

N^α-[Aib^8,22,35]GLP-1-(7-36)yl(N^ϵ-(3-(mPEGyl)propionyl)Lysinamide) wherein mPEGyl is polydisperse and has a molecular weight of approximately 750 Da
final HPLC purity ([2]; HPLC B1, scale of the general procedure 0.25 mmol): 98%

N^ϵ37-(3-(mPEGyl)propionyl)[Aib^8,22,35,Lys^37]GLP-1(7-37) amide wherein mPEGyl is polydisperse and has a molecular weight of approximately 2 kDa
crude HPLC purity ([2]; HPLC B6, scale of the general procedure 0.25 mmol): 64%
